According to patent EP4585618A1:
Results are given in words; binding and its absence hold for the method and conditions named. Some binding calls cover weakened binding; strength is not graded here.

Amino acid sequences for entries named in this document (tags omitted). A change or cut given only in a name is not applied to a line headed by its entry.
UniProt Q8N423: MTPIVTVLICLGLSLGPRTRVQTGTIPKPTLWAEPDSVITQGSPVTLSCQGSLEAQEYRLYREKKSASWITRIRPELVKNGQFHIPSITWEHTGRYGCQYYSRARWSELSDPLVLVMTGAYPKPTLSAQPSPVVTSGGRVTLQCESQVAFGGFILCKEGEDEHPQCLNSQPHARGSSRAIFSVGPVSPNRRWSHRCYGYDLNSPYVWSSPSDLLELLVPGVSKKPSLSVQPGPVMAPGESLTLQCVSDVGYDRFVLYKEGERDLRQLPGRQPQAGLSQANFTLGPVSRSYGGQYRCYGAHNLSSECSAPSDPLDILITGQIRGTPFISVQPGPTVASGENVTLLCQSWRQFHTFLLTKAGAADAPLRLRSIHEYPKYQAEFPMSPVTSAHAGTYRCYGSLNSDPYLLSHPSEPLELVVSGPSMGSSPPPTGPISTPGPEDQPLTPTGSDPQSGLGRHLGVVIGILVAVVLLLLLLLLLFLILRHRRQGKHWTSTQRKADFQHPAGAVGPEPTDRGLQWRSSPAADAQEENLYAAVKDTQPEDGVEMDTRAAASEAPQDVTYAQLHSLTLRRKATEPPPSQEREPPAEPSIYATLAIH

What was measured:
[1] = target: His-tagged ILT4 protein extracellular domain: ILT4-His (human) (UniProt Q8N423); test: ELISA, coated ILT4-His
[2] = target: His-tagged ILT4 protein extracellular domain: ILT4-His (human) (UniProt Q8N423); test: screening of chimeric antibodies (ILT4 protein binding, cell binding, ILT4/HLA-G blocking)

- binding [1]: binds
- binding [2]: binds
B1: chimeric antibody ChP1-E11 (antibody, human IgG4 S228P, kappa, F234A L235A, V domains shown)
VH: EVQLQQSGPELVKPGASVKMSCQASGYTFTDYSIHWVKQSRGASLEWIGYINPNNGVTNYNQKFKGKATLTVNKSSSTAYMELRSLTSEDSAVYYCAREGDSVTTIVVHWYFDVGGTGTTVTVSS
VL: DIQMTQSPASLSVSLGETVTITCRASENIYSNLVWYQQKQGKFPQLLVYAAINLVDGVPSRFSGSGSGTQYSLKINSLQSEDFGSYYCQQFWDTPLTFGAGTKLEIKR
